# Measured values reported in paper PMC5226550.
# Sequences of proteins named here, by UniProt entry; tags and fusion partners are left off.
# UniProt P08050: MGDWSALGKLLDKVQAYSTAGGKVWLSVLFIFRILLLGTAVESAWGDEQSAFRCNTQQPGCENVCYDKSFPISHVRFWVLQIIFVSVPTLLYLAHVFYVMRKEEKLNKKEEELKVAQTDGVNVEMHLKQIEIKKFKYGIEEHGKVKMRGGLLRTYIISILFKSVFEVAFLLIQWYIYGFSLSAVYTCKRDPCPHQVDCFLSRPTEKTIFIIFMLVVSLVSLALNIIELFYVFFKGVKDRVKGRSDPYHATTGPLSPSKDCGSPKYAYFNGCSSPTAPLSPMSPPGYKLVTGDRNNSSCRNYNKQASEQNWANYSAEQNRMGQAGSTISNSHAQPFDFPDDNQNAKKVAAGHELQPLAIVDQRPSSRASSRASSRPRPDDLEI
# UniProt P32577: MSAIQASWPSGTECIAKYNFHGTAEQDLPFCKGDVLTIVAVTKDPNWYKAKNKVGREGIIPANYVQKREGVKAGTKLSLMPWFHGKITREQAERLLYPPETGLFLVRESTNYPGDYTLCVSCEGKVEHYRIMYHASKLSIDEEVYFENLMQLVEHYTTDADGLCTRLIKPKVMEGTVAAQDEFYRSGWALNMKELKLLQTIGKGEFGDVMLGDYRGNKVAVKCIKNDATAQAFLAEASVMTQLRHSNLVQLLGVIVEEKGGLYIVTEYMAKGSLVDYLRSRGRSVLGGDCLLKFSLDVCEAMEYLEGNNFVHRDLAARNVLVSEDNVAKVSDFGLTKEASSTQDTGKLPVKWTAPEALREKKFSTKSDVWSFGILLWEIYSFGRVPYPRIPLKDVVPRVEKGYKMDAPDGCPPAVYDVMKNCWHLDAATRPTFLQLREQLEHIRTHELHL
# UniProt O54857: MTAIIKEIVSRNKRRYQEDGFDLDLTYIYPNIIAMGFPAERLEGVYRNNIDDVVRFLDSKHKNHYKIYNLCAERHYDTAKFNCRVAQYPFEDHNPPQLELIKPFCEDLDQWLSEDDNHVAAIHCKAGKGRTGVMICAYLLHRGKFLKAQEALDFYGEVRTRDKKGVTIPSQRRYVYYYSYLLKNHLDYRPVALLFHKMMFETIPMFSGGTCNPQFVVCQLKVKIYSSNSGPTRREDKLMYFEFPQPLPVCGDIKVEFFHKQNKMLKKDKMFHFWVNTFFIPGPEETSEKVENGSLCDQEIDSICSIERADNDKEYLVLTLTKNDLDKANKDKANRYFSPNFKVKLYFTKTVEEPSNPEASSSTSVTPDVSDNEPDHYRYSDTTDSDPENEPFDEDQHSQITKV
# Results are given in words; binding and its absence hold for the method and conditions named. Binding seen in cells or lysates may run through a third protein. Some binding calls cover weakened binding; strength is not graded here.
# Columns and labels:
# Experiment in all cases: co-IP
# Flag WT-PTEN = Flag WT-PTEN (UniProt P60484)
# Flag ΔPDZ-PTEN (1-400) = Flag ΔPDZ-PTEN (1-400) (UniProt P60484)
# HA-PTEN = HA-PTEN (UniProt P60484)
# [1] = molecular target: Connexin43 (endogenous in astrocytes) (rat (endogenous in Wistar rat astrocytes)) (UniProt P08050)
# [2] = molecular target: C-terminal Src kinase (rat (endogenous in C6 glioma cells and Wistar rat astrocytes)) (UniProt P32577)
Substance,binding (Flag WT-PTEN),binding (Flag ΔPDZ-PTEN (1-400)),binding (HA-PTEN),binding [1],binding [2]
"Connexin43 (rat, stably transfected in C6 glioma cells) (from UniProt P08050 1-382)",binds,binds,binds,,
phosphatase and tensin homolog (endogenous) (from UniProt O54857 1-403) (enzyme),,,,binds,
Connexin43 (endogenous in astrocytes) (from UniProt P08050 1-382),binds,binds,,,binds
